# PubChem BioAssay AID743121 | NCATS, 2013
# Aim: 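Genes whose silencing strengthens cell killing by camptothecin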 (primary screen)
# Cells: MDA-MB-231 cells, a human breast cancer line
# Reagent: single siRNA against human genes, 20 nM siRNA (0.8 pmol per well)
# Time to read-out: 120 h (drug added 48 h after transfection, read 72 h later)
# Challenge: camptothecin 20 nM (about EC30) for 72 h; vehicle 0.1% DMSO in parallel plates
# Measurement: 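Cell viability by ATP luminescence (CellTiter-Glo) as % of non-targeting siRNA wells, and the log2 ratio of viability without drug over viability with camptothecin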
# Direction: log2 vehicle/camptothecin viability: higher = stronger sensitisation to camptothecin; viability with camptothecin and viability without drug: higher = more viable cells
# Call rule: 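Each gene scored by redundant siRNA activity (RSA) over its individual siRNA ratios; a gene is called active at p < 0.001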
# This is an unselected part of about 26,000 reagents. 167 of all reagents (0.63%) were called active. 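Calls are per gene from RSA p-values that are not deposited; an individual active-marked siRNA can sensitise only weakly.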 Entries without a mark were called inactive. The numbers tell different reagents against one gene apart.
target gene,siRNA no.,log2 vehicle/camptothecin viability,viability with camptothecin (% of control),viability without drug (% of control)
NLGN4X (GeneID 57502),1,0.00289,105,105
NLGN4X (GeneID 57502),2,-0.0925,101,94.4
NLGN4X (GeneID 57502),3,0.122,40,43.5
LAMC1 (GeneID 3915),1,-0.384,124,94.7
LAMC1 (GeneID 3915),2,-0.416,76,56.9
LAMC1 (GeneID 3915),3,-0.346,54.5,42.9
SERPINE1 (GeneID 5054),1,0.668,67.9,108
SERPINE1 (GeneID 5054),2,-0.244,104,88.2
SERPINE1 (GeneID 5054),3,0.095,88.2,94.2
SERPINE1 (GeneID 5054),4,-0.198,96.9,84.4
CDC7 (GeneID 8317),1,-0.355,104,81.5
CDC7 (GeneID 8317),2,0.511,61.4,87.5
CDC7 (GeneID 8317),3,-0.0188,70.3,69.4
DUOX1 (GeneID 53905),1,0.278,42.6,51.6
DUOX1 (GeneID 53905),2,-0.202,111,96.8
DUOX1 (GeneID 53905),3,-0.133,106,97
DUOX1 (GeneID 53905),4,-0.228,43.3,37
UBD (GeneID 10537),1,-0.154,110,99.2
UBD (GeneID 10537),2,-0.141,94.9,86
UBD (GeneID 10537),3,-0.00735,85,84.6
UBD (GeneID 10537),4,-0.36,93,72.5
CTSV (GeneID 1515),1,-0.254,119,100
CTSV (GeneID 1515),2,-0.247,58,48.8
CTSV (GeneID 1515),3,0.645,30.4,47.6
CTSV (GeneID 1515),4,-0.544,48.9,33.5
BMPR1A (GeneID 657),1,-0.0299,106,104
BMPR1A (GeneID 657),2,-0.205,103,89.3
BMPR1A (GeneID 657),3,-0.137,88.7,80.6
BMPR1A (GeneID 657),4,-0.111,104,96.2
GPR158 (GeneID 57512),1,-0.262,104,86.5
GPR158 (GeneID 57512),2,-0.344,98.9,77.9
GPR158 (GeneID 57512),3,-0.158,99.8,89.4
GPR158 (GeneID 57512),4,-0.324,96.3,76.9
TACSTD2 (GeneID 4070),1,-0.0615,68.5,65.6
TACSTD2 (GeneID 4070),2,0.0268,101,103
TACSTD2 (GeneID 4070),3,-0.0367,71.5,69.7
REEP4 (GeneID 80346),1,-0.398,100,75.9
REEP4 (GeneID 80346),2,-0.288,108,88.4
REEP4 (GeneID 80346),3,-0.176,78.5,69.5
REEP4 (GeneID 80346),4,-0.388,75.3,57.5
ESRRA (GeneID 2101),1,-0.173,97.4,86.4
ESRRA (GeneID 2101),2,-0.433,51,37.8
ESRRA (GeneID 2101),3,-0.461,95.2,69.2
ESRRA (GeneID 2101),4,-0.477,65.1,46.8
PRMT9 (GeneID 90826),1,-0.0338,106,104
PRMT9 (GeneID 90826),2,-0.141,37.8,34.3
PRMT9 (GeneID 90826),3,-0.33,72.9,58
PRMT9 (GeneID 90826),4,-0.215,114,98.6
PFKM (GeneID 5213),1,-0.34,70.8,55.9
PFKM (GeneID 5213),2,0.026,23.3,23.7
PFKM (GeneID 5213),3,-0.342,66.5,52.5
PFKM (GeneID 5213),4,-0.274,86.9,71.9
TRIM64 (GeneID 120146),1,0.373,17.6,22.7
SOD1 (GeneID 6647),1,-0.337,99,78.4
SOD1 (GeneID 6647),2,-0.231,66.5,56.7
SOD1 (GeneID 6647),3,-0.112,97.7,90.4
SOD1 (GeneID 6647),4,-0.316,79.3,63.7
ALDH1B1 (GeneID 219),1,-0.165,76.8,68.5
ALDH1B1 (GeneID 219),2,-0.572,84,56.5
ALDH1B1 (GeneID 219),3,0.212,72.3,83.7
ALDH1B1 (GeneID 219),4,-0.00917,80.6,80.1
OR1Q1 (GeneID 158131),1,-0.255,52,43.6
OR1Q1 (GeneID 158131),2,-0.543,83.4,57.2
OR1Q1 (GeneID 158131),3,-0.183,142,125
OR1Q1 (GeneID 158131),4,-0.133,68.6,62.6
CARD6 (GeneID 84674),1,0.808,36,63
CARD6 (GeneID 84674),2,0.0552,59.6,62
CARD6 (GeneID 84674),3,-0.38,40.4,31
CARD6 (GeneID 84674),4,0.246,59.7,70.8

Individual results from above.
Value of SERPINE1 (GeneID 5054) #1 under “log2 vehicle/camptothecin viability”: 0.668
DUOX1 (GeneID 53905) #2, viability with camptothecin (% of control) → 111
Result for BMPR1A (GeneID 657) #4 under “viability with camptothecin (% of control)”: 104
Entry for ALDH1B1 (GeneID 219) #4 in “viability with camptothecin (% of control)”: 80.6
For “viability without drug (% of control)”, BMPR1A (GeneID 657) #2 has 89.3
For “log2 vehicle/camptothecin viability”, CTSV (GeneID 1515) #4 reads -0.544
